# Source: the supplement of paper PMC11438910
# This is one part of the list. The signal is at background level for most entries.
# B1: 4-173.1 (protein)
# chain 1: QLQLQESGPGLVKPSETLSLTCAVSGASISSNYWSWIRQAPGKGLEWIGRISGSSGSTDYNPSLKSRVTISTDTSKNQFSLKLNSVTAADTAVYYCARVSYWGHYGDYWGQGVLVTVSS
# chain 2: QPVLTQPSSHSASPGAPARLTCTLSSGFSVGDFWIRWYQQKPGSPPRYLLYYHSDSDKHQGSGVPSRFSGSNDASANAGILHISGLQPEDEADYYCCTWHGNSKTQIFGAGTRLTVL
# How the values were obtained:
# Assay in all cases: fluorescence intensity of antibody binding to polysaccharide-coupled beads; higher = stronger binding
# [1] = biological target: pneumococcal polysaccharide Pn38
# Method: (§1)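 Recombinant rhesus-murine chimeric IgG1 antibodies were tested against antigen-coupled MagPlex beads in a 96-plex Luminex direct immunoassay (dLIA). The beads carried pneumococcal capsular polysaccharides of 93 serotypes plus C-polysaccharides. Antibody was added at 0.1–12,500 ng/mL for 1 h, then PE anti-mouse IgG, and net MFI was read on a Bio-Plex 3D. Only the rhesus variable regions are printed; constant regions are murine IgG1/kappa/lambda, and the signal peptide is MGWSCIILFLVATATGVHS.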
# [2] = biological target: pneumococcal polysaccharide Pn39
# Method: as §1
# [3] = biological target: pneumococcal polysaccharide Pn4
# Method: as §1
# [4] = biological target: pneumococcal polysaccharide Pn40
# Method: as §1
# [5] = biological target: pneumococcal polysaccharide Pn41A
# Method: as §1
# [6] = biological target: pneumococcal polysaccharide Pn41F
# Method: as §1
# [7] = biological target: pneumococcal polysaccharide Pn42
# Method: as §1
# [8] = biological target: pneumococcal polysaccharide Pn43
# Method: as §1
# [9] = biological target: pneumococcal polysaccharide Pn44
# Method: as §1
# [10] = biological target: pneumococcal polysaccharide Pn45
# Method: as §1
# [11] = biological target: pneumococcal polysaccharide Pn46
# Method: as §1
# [12] = biological target: pneumococcal polysaccharide Pn47A
# Method: as §1
# [13] = biological target: pneumococcal polysaccharide Pn47F
# Method: as §1
# [14] = biological target: pneumococcal polysaccharide Pn48
# Method: as §1
# [15] = biological target: pneumococcal polysaccharide Pn5
# Method: as §1
# [16] = biological target: pneumococcal polysaccharide Pn6A
# Method: as §1
# [17] = biological target: pneumococcal polysaccharide Pn6B
# Method: as §1
# [18] = biological target: pneumococcal polysaccharide Pn6C
# Method: as §1
# [19] = biological target: pneumococcal polysaccharide Pn6D
# Method: as §1
# [20] = biological target: pneumococcal polysaccharide Pn7A
# Method: as §1
# [21] = biological target: pneumococcal polysaccharide Pn7B
# Method: as §1
# [22] = biological target: pneumococcal polysaccharide Pn7C
# Method: as §1
# [23] = biological target: pneumococcal polysaccharide Pn7F
# Method: as §1
# [24] = antibody concentration 81.7561 ng/mL
# [25] = antibody concentration 437.17 ng/mL
# [26] = antibody concentration 2337.65 ng/mL
# [27] = antibody concentration 12500 ng/mL
# [28] = antibody concentration 0.1 ng/mL
# [29] = antibody concentration 0.534724 ng/mL
# [30] = antibody concentration 2.8593 ng/mL
# [31] = antibody concentration 15.2894 ng/mL
binder,measurement,setting,value
B1,fluorescence intensity,[1]; [24],27.8 MFI
same,fluorescence intensity,[1]; [25],26 MFI
same,fluorescence intensity,[1]; [26],29 MFI
same,fluorescence intensity,[1]; [27],33.8 MFI
same,fluorescence intensity,[2]; [28],19.5 MFI
same,fluorescence intensity,[2]; [29],19.8 MFI
same,fluorescence intensity,[2]; [30],19.2 MFI
same,fluorescence intensity,[2]; [31],19.5 MFI
same,fluorescence intensity,[2]; [24],17.8 MFI
same,fluorescence intensity,[2]; [25],18.8 MFI
same,fluorescence intensity,[2]; [26],21.5 MFI
same,fluorescence intensity,[2]; [27],27.2 MFI
same,fluorescence intensity,[3]; [28],18.5 MFI
same,fluorescence intensity,[3]; [29],18.5 MFI
same,fluorescence intensity,[3]; [30],19 MFI
same,fluorescence intensity,[3]; [31],19 MFI
same,fluorescence intensity,[3]; [24],19 MFI
same,fluorescence intensity,[3]; [25],20.5 MFI
same,fluorescence intensity,[3]; [26],22.5 MFI
same,fluorescence intensity,[3]; [27],30.5 MFI
same,fluorescence intensity,[4]; [28],16.5 MFI
same,fluorescence intensity,[4]; [29],16.8 MFI
same,fluorescence intensity,[4]; [30],17.5 MFI
same,fluorescence intensity,[4]; [31],17 MFI
same,fluorescence intensity,[4]; [24],18.5 MFI
same,fluorescence intensity,[4]; [25],17.5 MFI
same,fluorescence intensity,[4]; [26],19 MFI
same,fluorescence intensity,[4]; [27],32.5 MFI
same,fluorescence intensity,[5]; [28],23.5 MFI
same,fluorescence intensity,[5]; [29],25 MFI
same,fluorescence intensity,[5]; [30],24.5 MFI
same,fluorescence intensity,[5]; [31],23 MFI
same,fluorescence intensity,[5]; [24],24.5 MFI
same,fluorescence intensity,[5]; [25],23 MFI
same,fluorescence intensity,[5]; [26],25.5 MFI
same,fluorescence intensity,[5]; [27],28.2 MFI
same,fluorescence intensity,[6]; [28],13 MFI
same,fluorescence intensity,[6]; [29],13.2 MFI
same,fluorescence intensity,[6]; [30],12.5 MFI
same,fluorescence intensity,[6]; [31],12.5 MFI
same,fluorescence intensity,[6]; [24],12.2 MFI
same,fluorescence intensity,[6]; [25],13 MFI
same,fluorescence intensity,[6]; [26],15.5 MFI
same,fluorescence intensity,[6]; [27],19.2 MFI
same,fluorescence intensity,[7]; [28],11.5 MFI
same,fluorescence intensity,[7]; [29],12 MFI
same,fluorescence intensity,[7]; [30],12 MFI
same,fluorescence intensity,[7]; [31],12.5 MFI
same,fluorescence intensity,[7]; [24],13 MFI
same,fluorescence intensity,[7]; [25],12.5 MFI
same,fluorescence intensity,[7]; [26],13.2 MFI
same,fluorescence intensity,[7]; [27],18.5 MFI
same,fluorescence intensity,[8]; [28],16.5 MFI
same,fluorescence intensity,[8]; [29],15.5 MFI
same,fluorescence intensity,[8]; [30],16.5 MFI
same,fluorescence intensity,[8]; [31],15.5 MFI
same,fluorescence intensity,[8]; [24],17 MFI
same,fluorescence intensity,[8]; [25],17.2 MFI
same,fluorescence intensity,[8]; [26],21 MFI
same,fluorescence intensity,[8]; [27],53 MFI
same,fluorescence intensity,[9]; [28],24.5 MFI
same,fluorescence intensity,[9]; [29],25.5 MFI
same,fluorescence intensity,[9]; [30],25.5 MFI
same,fluorescence intensity,[9]; [31],25 MFI
same,fluorescence intensity,[9]; [24],26 MFI
same,fluorescence intensity,[9]; [25],26 MFI
same,fluorescence intensity,[9]; [26],28 MFI
same,fluorescence intensity,[9]; [27],31 MFI
same,fluorescence intensity,[10]; [28],11.5 MFI
same,fluorescence intensity,[10]; [29],11.8 MFI
same,fluorescence intensity,[10]; [30],12 MFI
same,fluorescence intensity,[10]; [31],11.8 MFI
same,fluorescence intensity,[10]; [24],10.5 MFI
same,fluorescence intensity,[10]; [25],11.2 MFI
same,fluorescence intensity,[10]; [26],11.5 MFI
same,fluorescence intensity,[10]; [27],15.5 MFI
same,fluorescence intensity,[11]; [28],24 MFI
same,fluorescence intensity,[11]; [29],24 MFI
same,fluorescence intensity,[11]; [30],25.5 MFI
same,fluorescence intensity,[11]; [31],24.5 MFI
same,fluorescence intensity,[11]; [24],26.5 MFI
same,fluorescence intensity,[11]; [25],25.5 MFI
same,fluorescence intensity,[11]; [26],27.8 MFI
same,fluorescence intensity,[11]; [27],38 MFI
same,fluorescence intensity,[12]; [28],17 MFI
same,fluorescence intensity,[12]; [29],17 MFI
same,fluorescence intensity,[12]; [30],16.5 MFI
same,fluorescence intensity,[12]; [31],16.5 MFI
same,fluorescence intensity,[12]; [24],16 MFI
same,fluorescence intensity,[12]; [25],16.5 MFI
same,fluorescence intensity,[12]; [26],18.2 MFI
same,fluorescence intensity,[12]; [27],20 MFI
same,fluorescence intensity,[13]; [28],12.5 MFI
same,fluorescence intensity,[13]; [29],12.5 MFI
same,fluorescence intensity,[13]; [30],13 MFI
same,fluorescence intensity,[13]; [31],12.5 MFI
same,fluorescence intensity,[13]; [24],13.5 MFI
same,fluorescence intensity,[13]; [25],12.5 MFI
same,fluorescence intensity,[13]; [26],14.8 MFI
same,fluorescence intensity,[13]; [27],22.5 MFI
same,fluorescence intensity,[14]; [28],21 MFI
same,fluorescence intensity,[14]; [29],20.5 MFI
same,fluorescence intensity,[14]; [30],20.5 MFI
same,fluorescence intensity,[14]; [31],23 MFI
same,fluorescence intensity,[14]; [24],21.2 MFI
same,fluorescence intensity,[14]; [25],23.5 MFI
same,fluorescence intensity,[14]; [26],24.8 MFI
same,fluorescence intensity,[14]; [27],35.5 MFI
same,fluorescence intensity,[15]; [28],9.5 MFI
same,fluorescence intensity,[15]; [29],9.5 MFI
same,fluorescence intensity,[15]; [30],10.5 MFI
same,fluorescence intensity,[15]; [31],9 MFI
same,fluorescence intensity,[15]; [24],9.5 MFI
same,fluorescence intensity,[15]; [25],10 MFI
same,fluorescence intensity,[15]; [26],12.5 MFI
same,fluorescence intensity,[15]; [27],24 MFI
same,fluorescence intensity,[16]; [28],22 MFI
same,fluorescence intensity,[16]; [29],22 MFI
same,fluorescence intensity,[16]; [30],22.5 MFI
same,fluorescence intensity,[16]; [31],21.2 MFI
same,fluorescence intensity,[16]; [24],22 MFI
same,fluorescence intensity,[16]; [25],23.5 MFI
same,fluorescence intensity,[16]; [26],24 MFI
same,fluorescence intensity,[16]; [27],30.8 MFI
same,fluorescence intensity,[17]; [28],19 MFI
same,fluorescence intensity,[17]; [29],20.8 MFI
same,fluorescence intensity,[17]; [30],21.8 MFI
same,fluorescence intensity,[17]; [31],19.2 MFI
same,fluorescence intensity,[17]; [24],20 MFI
same,fluorescence intensity,[17]; [25],22 MFI
same,fluorescence intensity,[17]; [26],23.2 MFI
same,fluorescence intensity,[17]; [27],30 MFI
same,fluorescence intensity,[18]; [28],26.5 MFI
same,fluorescence intensity,[18]; [29],43 MFI
same,fluorescence intensity,[18]; [30],71 MFI
same,fluorescence intensity,[18]; [31],70.8 MFI
same,fluorescence intensity,[18]; [24],77.8 MFI
same,fluorescence intensity,[18]; [25],63 MFI
same,fluorescence intensity,[18]; [26],90.2 MFI
same,fluorescence intensity,[18]; [27],88.5 MFI
same,fluorescence intensity,[19]; [28],16.5 MFI
same,fluorescence intensity,[19]; [29],18.5 MFI
same,fluorescence intensity,[19]; [30],15.5 MFI
same,fluorescence intensity,[19]; [31],17.8 MFI
same,fluorescence intensity,[19]; [24],17 MFI
same,fluorescence intensity,[19]; [25],15.2 MFI
same,fluorescence intensity,[19]; [26],18.8 MFI
same,fluorescence intensity,[19]; [27],22.8 MFI
same,fluorescence intensity,[20]; [28],21 MFI
same,fluorescence intensity,[20]; [29],19.5 MFI
same,fluorescence intensity,[20]; [30],21.5 MFI
same,fluorescence intensity,[20]; [31],20.8 MFI
same,fluorescence intensity,[20]; [24],20 MFI
same,fluorescence intensity,[20]; [25],23.2 MFI
same,fluorescence intensity,[20]; [26],27.2 MFI
same,fluorescence intensity,[20]; [27],81.5 MFI
same,fluorescence intensity,[21]; [28],16.5 MFI
same,fluorescence intensity,[21]; [29],17 MFI
same,fluorescence intensity,[21]; [30],18.2 MFI
same,fluorescence intensity,[21]; [31],17.5 MFI
same,fluorescence intensity,[21]; [24],16.8 MFI
same,fluorescence intensity,[21]; [25],16.5 MFI
same,fluorescence intensity,[21]; [26],19.2 MFI
same,fluorescence intensity,[21]; [27],28 MFI
same,fluorescence intensity,[22]; [28],16.5 MFI
same,fluorescence intensity,[22]; [29],17.5 MFI
same,fluorescence intensity,[22]; [30],20.2 MFI
same,fluorescence intensity,[22]; [31],16 MFI
same,fluorescence intensity,[22]; [24],17.5 MFI
same,fluorescence intensity,[22]; [25],18 MFI
same,fluorescence intensity,[22]; [26],17.5 MFI
same,fluorescence intensity,[22]; [27],25 MFI
same,fluorescence intensity,[23]; [28],14 MFI
same,fluorescence intensity,[23]; [29],15.5 MFI
same,fluorescence intensity,[23]; [30],15.5 MFI
same,fluorescence intensity,[23]; [31],15.5 MFI
same,fluorescence intensity,[23]; [24],16 MFI
same,fluorescence intensity,[23]; [25],17 MFI
same,fluorescence intensity,[23]; [26],20.5 MFI
same,fluorescence intensity,[23]; [27],52.2 MFI

# Laid out differently: entries from further up
binder	measurement	setting	value
B1	fluorescence intensity	[6]; [24]	12.2 MFI
same	fluorescence intensity	[6]; [25]	13 MFI
same	fluorescence intensity	[6]; [26]	15.5 MFI
same	fluorescence intensity	[6]; [27]	19.2 MFI
same	fluorescence intensity	[7]; [28]	11.5 MFI

# Some of the entries above, reformatted:
binder	measurement	setting	value
B1	fluorescence intensity	[3]; [31]	19 MFI
same	fluorescence intensity	[3]; [24]	19 MFI
same	fluorescence intensity	[3]; [25]	20.5 MFI
same	fluorescence intensity	[3]; [26]	22.5 MFI
same	fluorescence intensity	[3]; [27]	30.5 MFI
